Data: patent publication US11401247B2, “Thiazole-5-carboxylic acid derivative and preparation method and use thereof” (XIANGBEI WELMAN PHARMACEUTICAL CO., LTD, priority 2018, dated 2022)
Some entries share one result that the patent states for a list of compounds.

System: hyperuricemia rats
Assay: pharmacodynamic screening in rat hyperuricemia model (exogenous uric acid administered, uric acid decomposition inhibited)
Format: in vivo, SD rats
Details: F compounds 10 mg/kg, febuxostat 14 mg/kg oral

With `Cc1nc(-c2ccc(OCC(C)C)c(C#N)c2)sc1C(=O)N1CCC[C@H]1C(=O)O` [Compound F-2D] the “p, uric acid level 3 h after drug administration compared with the blank group” value was less than 0.05.
